Test results: article PMC6385031
The exact form of at least one protein or probe is not confirmed. Where cells or extracts were used, other partners may take part.

By UniProt entry, the sequences of proteins in these tests, tags left out. Where a name states a change or a piece, a line headed by the entry shows the natural chain unless it says otherwise.
UniProt P15941: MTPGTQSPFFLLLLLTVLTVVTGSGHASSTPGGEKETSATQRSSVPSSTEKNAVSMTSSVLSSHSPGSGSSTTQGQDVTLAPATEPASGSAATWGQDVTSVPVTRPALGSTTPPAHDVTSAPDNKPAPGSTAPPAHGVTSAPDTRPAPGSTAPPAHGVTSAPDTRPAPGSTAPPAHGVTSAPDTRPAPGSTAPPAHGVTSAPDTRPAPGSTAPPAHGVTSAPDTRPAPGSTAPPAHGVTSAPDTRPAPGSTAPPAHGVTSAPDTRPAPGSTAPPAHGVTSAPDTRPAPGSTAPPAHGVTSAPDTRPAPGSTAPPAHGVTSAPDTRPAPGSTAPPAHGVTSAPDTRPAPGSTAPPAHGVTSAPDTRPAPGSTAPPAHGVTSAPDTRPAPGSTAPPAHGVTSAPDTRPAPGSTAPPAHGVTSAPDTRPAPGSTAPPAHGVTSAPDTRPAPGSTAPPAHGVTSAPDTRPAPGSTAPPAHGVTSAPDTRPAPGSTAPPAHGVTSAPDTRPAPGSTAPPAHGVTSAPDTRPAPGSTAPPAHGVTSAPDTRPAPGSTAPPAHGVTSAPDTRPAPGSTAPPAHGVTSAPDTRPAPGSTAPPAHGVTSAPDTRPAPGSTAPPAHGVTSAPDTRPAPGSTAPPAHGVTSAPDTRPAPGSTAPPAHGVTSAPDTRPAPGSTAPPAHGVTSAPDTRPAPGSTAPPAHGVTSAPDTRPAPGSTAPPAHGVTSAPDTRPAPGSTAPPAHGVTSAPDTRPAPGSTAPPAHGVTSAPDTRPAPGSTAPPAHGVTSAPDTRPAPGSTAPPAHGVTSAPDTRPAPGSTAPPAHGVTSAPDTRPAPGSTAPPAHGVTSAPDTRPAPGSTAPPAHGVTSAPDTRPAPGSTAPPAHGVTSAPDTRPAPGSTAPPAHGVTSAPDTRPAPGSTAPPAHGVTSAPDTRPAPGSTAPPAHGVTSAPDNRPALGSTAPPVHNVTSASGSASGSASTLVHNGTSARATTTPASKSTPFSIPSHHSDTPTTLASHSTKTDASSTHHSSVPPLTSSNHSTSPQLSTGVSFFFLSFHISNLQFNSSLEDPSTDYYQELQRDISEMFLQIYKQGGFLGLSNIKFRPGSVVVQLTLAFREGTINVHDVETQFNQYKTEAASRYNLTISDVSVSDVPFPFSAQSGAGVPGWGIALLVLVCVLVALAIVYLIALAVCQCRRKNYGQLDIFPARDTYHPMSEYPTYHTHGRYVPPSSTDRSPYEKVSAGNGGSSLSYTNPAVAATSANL

Tests used:
[1] = molecular target: Mucin1 (MUC1) on A549 cells (UniProt P15941); test: flow cytometry; settings: A549 cells, 40 pmol in 250 uL, no binding to MUC1-negative HepG2, PBS, 2x10^5 cells in 250 uL, 40 pmol DNA, 30 min with gentle shaking (temperature not stated), competition at 37 C, 3 PBS washes, protein on the cell surface, folded or branched DNA
CD16 on PBMC = test: flow cytometry; settings: PBMC, 40 pmol in 250 uL, no binding to CD16-negative Jurkat, PBS, 2x10^5 cells in 250 uL, 40 pmol DNA, 30 min with gentle shaking (temperature not stated), competition at 37 C, 3 PBS washes, protein on the cell surface, folded or branched DNA

Sequence	binding result [1]	binding result (CD16 on PBMC)
AACCGCCCAAATCCCTAAGAGTCGGACTGCAACCTATGCTATCGTTGATGTCTGTCCAAGCAACACAGACACACTACACACGCACA [MUC1 aptamer]	binds	
CCACTGCGGGGGTCTATACGTGAGGAAGAAGTGG [CD16 aptamer]		binds
